Source: ChEMBL document CHEMBL2407053, “Pharbinilic acid, an allogibberic acid from morning glory (Pharbitis nil)” (J Nat Prod, 2013)

Tested on: A549
Assay: Cytotoxicity against human A549 cells by sulforhodamine B assay
Assay type: functional, cell-based

Question: Which IC50 does the source give for `COc1cccc2c1C(=O)c1c(O)c3c(c(O)c1C2=O)C[C@@](O)(C(=O)CO)C[C@@H]3O[C@H]1C[C@H](N)[C@H](O)[C@H](C)O1` [DOXORUBICIN] here?
Answer: 20 nM
